# Results: paper PMC5570191
# These are yes or no findings as the source states them, for the method shown. Binding seen in cells or lysates may run through a third protein. For some assays here: Binding calls can cover weak binding; strength is not graded here. Sequences can lack the tags named with a protein.
# B1: double-tagged human MBP-TEX19-GB1-His6 (protein, UniProt Q8NA77 1-164)
# chain: MCPPVSMRYEEEGMSYLYASWMYQLQHGDQLSICFTCFKAAFLDFKDLLESEDWEEDNWDPELMEHTEAESEQEGSSGMELSWGQSPGQPVQGGSEAWGPGTLAAAPEGLEDAGLDPHFVPTELWPQEAVPLGLGLEDADWTQGLPWRFEELLTCSHWPSFFPS
# B2: human TEX19, first 68 amino acids (domain or fragment, UniProt Q8NA77 1-68)
# chain: MCPPVSMRYEEEGMSYLYASWMYQLQHGDQLSICFTCFKAAFLDFKDLLESEDWEEDNWDPELMEHTE
# How the values were obtained:
# [1] = target: T1, mouse TEX19.1-YFP (expressed in HEK293 or HEK293T cells) (mouse) (UniProt Q99MV2); assay: co-IP; HEK293T co-transfected, harvested after 24 hr; GFP-Trap agarose beads to precipitate YFP- or GFP-tagged proteins; Western blot
# T1 sequence: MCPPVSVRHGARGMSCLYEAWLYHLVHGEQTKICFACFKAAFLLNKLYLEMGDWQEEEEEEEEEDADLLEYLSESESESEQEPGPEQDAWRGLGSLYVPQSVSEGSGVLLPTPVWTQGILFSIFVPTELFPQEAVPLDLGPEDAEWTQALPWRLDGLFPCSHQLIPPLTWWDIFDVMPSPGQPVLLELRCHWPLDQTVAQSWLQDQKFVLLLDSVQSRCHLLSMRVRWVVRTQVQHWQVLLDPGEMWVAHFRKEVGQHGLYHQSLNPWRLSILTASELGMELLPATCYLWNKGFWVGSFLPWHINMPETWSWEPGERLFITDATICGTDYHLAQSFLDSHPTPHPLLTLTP
# [2] = target: Strep-tagged human L1-ORF1p (human); assay: condition: only proteins expressed separately, TEX19 added after L1-ORF1p immobilization on Strep-Tactin beads; pull-down; proteins expressed separately in E. coli: Strep-tagged partner immobilised on Strep-Tactin Sepharose from lysate and washed, then TEX19 lysate added, 45 min at 4°C; 50 mM Hepes pH 7.0, 200 mM NaCl, 2 mM DTT
# [3] = target: Strep-tagged human L1-ORF1p (human); assay: pull-down; Strep-Tactin Sepharose pull-down from E. coli lysate of co-expressed proteins; 50 mM Hepes pH 7.0, 200 mM NaCl, 2 mM DTT, 45 min at 4°C; elution with 2.5 mM biotin, SDS-PAGE
# [4] = target: Strep-tagged human L1-ORF1p (human); assay: pull-down; Strep-Tactin pull-down from E. coli lysate of co-expressed proteins treated with micrococcal nuclease (4 x 10^3 gel units/ml, 2.5 mM CaCl2, 15 min at 4°C); 50 mM Hepes pH 7.0, 150 mM NaCl, 2 mM DTT
Molecule,binding [1],binding [2],binding [3],binding [4]
T7 epitope-tagged mouse L1-ORF1p RNA-binding mutant R297A R298A,binds,–,–,–
B1,–,no binding,binds,binds
B2,–,–,binds,–
